# Experimental data reported in the supplement of paper PMC3334620.
# The full ranking holds about 33,000 sequences; the median of “E-score (-0.5 to 0.5)” is about -8e-05, and the highest 2% start at about 0.23. The list shows a part of the results.
# Biological target: T1, Nrg2 (UniProt P38082)
# T1 sequence: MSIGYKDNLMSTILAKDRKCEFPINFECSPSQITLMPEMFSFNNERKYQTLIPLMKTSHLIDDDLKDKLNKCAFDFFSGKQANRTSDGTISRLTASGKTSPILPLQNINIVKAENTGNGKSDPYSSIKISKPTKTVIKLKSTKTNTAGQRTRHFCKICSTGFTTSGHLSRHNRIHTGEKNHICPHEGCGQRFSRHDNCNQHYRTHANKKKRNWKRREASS
# Test: PBM E-score (8-mer binding enrichment) (E-score (-0.5 to 0.5)); higher = stronger / more preferred TF binding
# Details: protein concentration: 100 nM; construct: GST-full length
# In short: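 Using PURExpress in vitro transcription/translation, GST-tagged yeast transcription factors were made in full-length or DNA-binding-domain form. These were applied at about 100-200 nM to double-stranded universal all-10-mer Agilent arrays, and bound protein was detected with fluorescent anti-GST. Scans were normalised with masliner before the Universal PBM Analysis Suite assigned E-scores to ungapped eight-base words pooled with their reverse complements.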
row,Sequence,PBM E-score
1,AGCCGTAA,-0.0562
2,GCGCACCA,0.109
3,CCTGCTAA,-0.0759
4,TCTAAACA,-0.15
5,ATTCATCA,0.181
6,ACAGCCAG,0.104
7,CGATGGAA,-0.0846
8,AACACTGG,0.0606
9,ACTCTTCC,-0.212
10,CGGAAGGC,-0.319
11,ACGCGGCC,-0.153
12,GAGTAGAA,-0.0201
13,GAAGACCA,-0.0291
14,ATAAGAGC,0.0649
15,AGGTAGTA,0.18
16,ACGCAGCG,-0.0861
17,CAGCCCGA,-0.0629
18,AGTCATTC,-0.0596
19,ATGCGACG,-0.0474
20,AGGAACAC,0.131
21,CTTACGAA,0.00101
22,TACTGGCA,-0.131
23,GAGGGCAA,0.113
24,AACCTACA,0.104
25,TACTCGGA,0.157

# As entered above:
# GCGCACCA | PBM E-score: 0.109
# ACGCGGCC | PBM E-score: -0.153
# GAGTAGAA | PBM E-score: -0.0201
# CCTGCTAA | PBM E-score: -0.0759
# ATGCGACG | PBM E-score: -0.0474
# ACGCAGCG | PBM E-score: -0.0861

# Going on with the list.

row,Sequence,PBM E-score
1,CACCTAGA,-0.0936
2,AAGAGGAT,-0.211
3,ACAAGATC,-0.117
4,CTATGCAG,-0.0253
5,AAAATTGT,0.113
6,TCCCTGCA,0.25
7,GACGTGCC,0.0221
8,GTTGAGAA,-0.00227
9,ATTAACGG,0.0653
10,ATGGCCTA,0.00552
11,AGGGGGTC,-0.163
12,GACCAATC,0.0952
13,GTGTCAGA,-0.107
14,ACTGCTCT,0.00123
15,GTACTGCA,-0.0299
16,CCCGGGAG,-0.0389
17,AATAGTGC,0.077
18,CAGTACAC,0.0233
19,CTACATCC,-0.0578
20,CATAAGTC,0.0683
21,CCCCAACC,-0.00576
22,GGACGTCC,0.0882
23,GAAATGCC,-0.00619
24,AGAAAGAC,0.115
25,CAGAACAG,0.0915

row,Sequence,PBM E-score
1,GATTTCGA,0.00717
2,AGCGGTGA,-0.167
3,AGTAATAA,0.12
4,ACTAAGAG,-0.0703
5,CGCATGCA,0.246
6,AGGCCGTA,0.0631
7,TATTTAAA,0.221
8,GTAAGACA,-0.0374
9,AGTTCCAA,-0.0923
10,AATTGCAC,0.144
11,CGTACTGC,-0.00898
12,GGTATTAC,0.169
13,GGGACCGA,0.0973
14,AAACAAGG,0.0234
15,AATACCCA,0.192
16,AAAGCGAA,0.155
17,ATCCATTC,0.109
18,CAGGGTTC,0.387
19,CATTGGGG,-0.108
20,AGTCTAGG,-0.299
21,AGGGGCAA,0.0442
22,AGTGTTGA,0.125
23,AAGTGATG,-0.0026
24,GCACCGAA,-0.0118
25,AATTCGAG,-0.0416

row,Sequence,PBM E-score
1,AGAAAAAA,0.0465
2,ATCCTTGG,0.0934
3,CCATTTAA,-0.00324
4,CACTCAGC,0.0295
5,AACTCGTC,0.0348
6,ACTTCTCG,0.0762
7,AAGACTGT,-0.21
8,AAGTTGAG,0.00922
9,GGATTCGA,-0.0125
10,ACGAAACC,0.207
11,CAGGTCGA,0.159
12,CGCGATGC,-0.18
13,AGTTCCCA,0.122
14,ACAGGTGA,0.207
15,AGGGTCCG,0.374
16,CATATCGG,-0.00381
17,CTTCTCCA,-0.0386
18,CAAATATA,0.03
19,TGTGTCAA,0.0121
20,CAGGACGC,-0.095
21,AGCGGTAG,-0.196
22,CAGGGGGC,0.00087
23,GCCCGCGA,0.101
24,ACCTGTAT,0.0302
25,AAAATCGG,0.00405

row,Sequence,PBM E-score
1,GTCCTGGA,-0.261
2,GACGATGA,-0.104
3,CCGCGTTC,0.0737
4,CTGTCTAC,-0.0488
5,GACGTTTA,-0.0222
6,GAAAAATC,0.099
7,AGGATGTA,0.133
8,ACTGGCCG,-0.204
9,CGTAGAAC,-0.179
10,ATAGAAGC,0.0847
11,ACAATCTC,0.0737
12,AACTCACC,0.14
13,CAGTACCG,-0.107
14,TAAGCAAA,0.0437
15,GTTTGAGA,-0.0452
16,GCAACGGA,0.162
17,CAGATGAC,-0.134
18,ACAACAGT,0.00778
19,AACGGCAT,0.23
20,ACTCAAAC,0.0952
21,AACAATTG,0.0115
22,GGGGGGTA,-0.443
23,GACTTACC,-0.167
24,CTCAGCGC,0.0699
25,GGCCCCCA,-0.432

# For reference, part of the list above.
row,Sequence,PBM E-score
13,CAGTACCG,-0.107
14,TAAGCAAA,0.0437

# Next part:

row,Sequence,PBM E-score
1,ACGACCCC,-0.00055
2,CTACTAGC,0.137
3,GATGCTGA,-0.186
4,ACGGAAAG,0.0778
5,GACGCTAC,-0.0645
6,ACTAACCT,0.198
7,TGTCACAA,0.0819
8,CTATACCC,0.0295
9,CTTACCAA,0.069
10,GCCTGTCC,-0.0509
11,CCAACACG,0.0552
12,GTACCGCA,0.115
13,AATGAATA,0.0473
14,CGGACGAG,-0.0232
15,ATCTCCGA,0.125
16,CGCACAAC,0.156
17,TCTTCACA,0.0559
18,ACTGAGTC,0.0506
19,GTGATATA,0.0797
20,CACCTAGC,-0.162
21,ATGAAGCC,0.0979
22,AGGAATTG,0.131
23,GGCCGCGA,-0.121
24,CAGCTGAA,0.0625
25,ATCCCGGG,0.00544

row,Sequence,PBM E-score
1,CCGAGTAG,0.134
2,AGTACCCA,-0.0348
3,TCCTTAAA,0.00106
4,CTGCTCCC,-0.0408
5,ATAAAGTA,0.18
6,AAAAGCTA,-0.0438
7,CACCCTCA,-0.0306
8,ACGCCCGG,-0.136
9,GGGTTTTA,0.207
10,CTTTACTC,0.144
11,CGGGGCTA,-0.204
12,AAGTCTTG,-0.145
13,GGGCGCGA,0.15
14,CTCCAAGC,0.011
15,AGAGGAAG,-0.0269
16,CATACATG,0.056
17,ACTCGCAA,0.028
18,ATGTTACG,-0.0968
19,CAGCCTCC,-0.333
20,CCCGCGGC,0.109
21,AAATCACG,0.0849
22,CCCTCAGC,-0.0293
